These are yes or no findings as the source states them, for the method shown. Binding seen in cells or lysates may run through a third protein. A yes stands for co-enrichment or nearness to the bait. Other partners may have been found. Tags and fused reporters may be left off the sequences shown.
T1: GFP-Vps501 (S. cerevisiae) (UniProt P36158)
T1 sequence: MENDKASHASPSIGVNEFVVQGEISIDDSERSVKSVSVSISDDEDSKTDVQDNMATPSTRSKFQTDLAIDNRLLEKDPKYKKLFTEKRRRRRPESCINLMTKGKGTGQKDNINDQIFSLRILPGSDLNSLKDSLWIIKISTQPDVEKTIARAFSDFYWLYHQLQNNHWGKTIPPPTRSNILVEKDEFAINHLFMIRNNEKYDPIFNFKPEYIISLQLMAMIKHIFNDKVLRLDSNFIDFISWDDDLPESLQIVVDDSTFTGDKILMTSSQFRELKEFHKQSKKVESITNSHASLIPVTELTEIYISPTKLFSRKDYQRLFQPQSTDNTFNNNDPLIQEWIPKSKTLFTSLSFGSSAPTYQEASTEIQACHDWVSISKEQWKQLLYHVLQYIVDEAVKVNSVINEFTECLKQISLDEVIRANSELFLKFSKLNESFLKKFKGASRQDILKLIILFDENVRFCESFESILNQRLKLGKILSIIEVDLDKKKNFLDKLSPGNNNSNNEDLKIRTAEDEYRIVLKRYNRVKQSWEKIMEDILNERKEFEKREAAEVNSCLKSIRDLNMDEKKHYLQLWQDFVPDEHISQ

By UniProt entry, the sequences of proteins in these tests, tags left out.
UniProt P38873: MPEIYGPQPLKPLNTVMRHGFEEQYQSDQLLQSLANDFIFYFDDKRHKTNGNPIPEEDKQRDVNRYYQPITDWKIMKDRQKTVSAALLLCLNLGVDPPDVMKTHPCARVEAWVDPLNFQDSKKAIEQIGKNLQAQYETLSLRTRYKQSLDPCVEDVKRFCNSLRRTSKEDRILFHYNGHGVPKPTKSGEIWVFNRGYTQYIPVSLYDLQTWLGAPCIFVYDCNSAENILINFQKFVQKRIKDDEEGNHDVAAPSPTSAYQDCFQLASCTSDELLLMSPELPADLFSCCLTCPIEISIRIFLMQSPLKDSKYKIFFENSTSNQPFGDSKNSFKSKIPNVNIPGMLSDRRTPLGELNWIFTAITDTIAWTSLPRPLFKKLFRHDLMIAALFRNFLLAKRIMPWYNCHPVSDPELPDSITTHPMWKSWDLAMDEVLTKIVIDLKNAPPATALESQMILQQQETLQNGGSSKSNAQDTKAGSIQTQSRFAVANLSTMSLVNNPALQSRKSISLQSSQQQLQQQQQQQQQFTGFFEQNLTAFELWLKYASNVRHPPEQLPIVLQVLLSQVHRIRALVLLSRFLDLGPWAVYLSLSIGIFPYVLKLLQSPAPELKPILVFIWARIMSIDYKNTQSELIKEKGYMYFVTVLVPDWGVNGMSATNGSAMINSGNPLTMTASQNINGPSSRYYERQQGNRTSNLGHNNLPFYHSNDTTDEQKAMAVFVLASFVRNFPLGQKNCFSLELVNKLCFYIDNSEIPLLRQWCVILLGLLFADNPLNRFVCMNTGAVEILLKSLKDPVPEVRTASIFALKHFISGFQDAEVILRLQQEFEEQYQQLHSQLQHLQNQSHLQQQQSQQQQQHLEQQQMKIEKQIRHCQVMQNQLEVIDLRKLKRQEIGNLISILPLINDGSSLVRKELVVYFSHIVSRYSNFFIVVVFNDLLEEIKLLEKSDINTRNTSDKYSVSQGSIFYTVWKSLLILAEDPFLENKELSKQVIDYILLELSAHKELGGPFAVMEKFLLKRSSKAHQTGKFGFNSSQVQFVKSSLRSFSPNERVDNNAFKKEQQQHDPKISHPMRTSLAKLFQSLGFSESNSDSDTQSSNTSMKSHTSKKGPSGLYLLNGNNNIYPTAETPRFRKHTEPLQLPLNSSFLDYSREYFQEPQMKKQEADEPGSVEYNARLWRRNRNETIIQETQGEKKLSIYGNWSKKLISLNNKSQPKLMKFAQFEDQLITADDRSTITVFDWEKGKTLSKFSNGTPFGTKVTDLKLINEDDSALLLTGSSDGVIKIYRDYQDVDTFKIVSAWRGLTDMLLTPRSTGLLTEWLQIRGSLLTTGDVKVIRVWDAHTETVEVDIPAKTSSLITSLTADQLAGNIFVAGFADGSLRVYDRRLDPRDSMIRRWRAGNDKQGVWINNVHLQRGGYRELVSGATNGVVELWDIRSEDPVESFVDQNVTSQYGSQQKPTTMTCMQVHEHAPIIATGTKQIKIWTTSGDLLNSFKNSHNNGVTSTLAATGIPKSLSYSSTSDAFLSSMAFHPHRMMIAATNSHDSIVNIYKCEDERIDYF
UniProt P47170: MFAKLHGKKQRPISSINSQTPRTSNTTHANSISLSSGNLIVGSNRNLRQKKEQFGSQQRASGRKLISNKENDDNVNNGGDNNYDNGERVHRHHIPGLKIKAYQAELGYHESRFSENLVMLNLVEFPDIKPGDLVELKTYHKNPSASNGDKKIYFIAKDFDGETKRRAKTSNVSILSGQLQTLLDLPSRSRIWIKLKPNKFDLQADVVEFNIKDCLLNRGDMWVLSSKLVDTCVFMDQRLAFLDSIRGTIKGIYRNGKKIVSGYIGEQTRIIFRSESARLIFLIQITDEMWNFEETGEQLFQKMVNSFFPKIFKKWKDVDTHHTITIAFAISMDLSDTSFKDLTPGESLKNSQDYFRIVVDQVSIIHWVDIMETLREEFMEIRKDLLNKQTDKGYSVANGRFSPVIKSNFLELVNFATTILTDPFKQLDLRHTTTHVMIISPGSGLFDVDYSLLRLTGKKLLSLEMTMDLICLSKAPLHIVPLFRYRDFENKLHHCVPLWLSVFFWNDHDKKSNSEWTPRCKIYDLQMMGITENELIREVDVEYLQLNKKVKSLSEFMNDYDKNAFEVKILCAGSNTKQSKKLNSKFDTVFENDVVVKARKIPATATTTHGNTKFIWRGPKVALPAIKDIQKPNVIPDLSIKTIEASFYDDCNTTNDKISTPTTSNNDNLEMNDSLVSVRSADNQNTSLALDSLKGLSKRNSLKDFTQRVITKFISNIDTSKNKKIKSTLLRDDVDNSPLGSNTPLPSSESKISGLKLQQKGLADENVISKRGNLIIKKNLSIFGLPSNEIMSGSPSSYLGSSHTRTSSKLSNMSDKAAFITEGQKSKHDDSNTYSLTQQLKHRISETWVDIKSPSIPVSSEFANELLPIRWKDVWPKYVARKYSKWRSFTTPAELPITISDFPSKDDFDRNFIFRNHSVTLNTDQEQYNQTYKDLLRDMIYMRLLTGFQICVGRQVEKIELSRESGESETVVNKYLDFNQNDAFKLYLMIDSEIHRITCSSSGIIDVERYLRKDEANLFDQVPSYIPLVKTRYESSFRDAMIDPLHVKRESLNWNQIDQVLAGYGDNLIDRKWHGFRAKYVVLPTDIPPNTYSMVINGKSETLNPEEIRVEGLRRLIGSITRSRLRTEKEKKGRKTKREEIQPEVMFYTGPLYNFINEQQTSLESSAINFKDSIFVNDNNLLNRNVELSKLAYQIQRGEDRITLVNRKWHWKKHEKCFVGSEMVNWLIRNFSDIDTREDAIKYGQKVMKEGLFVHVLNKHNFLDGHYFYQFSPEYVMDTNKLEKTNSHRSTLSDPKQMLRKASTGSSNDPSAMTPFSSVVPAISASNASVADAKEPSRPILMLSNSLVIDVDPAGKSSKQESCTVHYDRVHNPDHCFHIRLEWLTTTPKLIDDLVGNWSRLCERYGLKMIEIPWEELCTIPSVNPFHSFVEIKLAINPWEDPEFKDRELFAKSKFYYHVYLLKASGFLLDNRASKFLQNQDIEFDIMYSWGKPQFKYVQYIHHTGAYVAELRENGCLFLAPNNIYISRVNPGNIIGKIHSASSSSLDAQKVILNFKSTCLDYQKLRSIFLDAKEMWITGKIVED


Molecular target: T1, GFP-Vps501 (S. cerevisiae)
Assay: affinity purification with mass spectrometry; GFP-Vps501 captured from 200 mg whole cell protein extract on GFP-Trap Magnetic Agarose, 4°C, 20 min; washed five times in 50 mM Tris-HCl pH 7.4, 150 mM NaCl; SDS-PAGE, in-gel trypsin digestion, LC-MS/MS; triplicate, normalised to beads alone

| Molecule | binding |
| --- | --- |
| Kog1 (from UniProt P38873 1-1557) | binds |
| Sea1 (from UniProt P47170 1-1584) | binds |
| Seh1 (protein, UniProt P53011 1-349) MQPFDSGHDDLVHDVVYDFYGRHVATCSSDQHIKVFKLDKDTSNWELSDSWRAHDSSIVAIDWASPEYGRIIASASYDKTVKLWEEDPDQEECSGRRWNKLCTLNDSKGSLYSVKFAPAHLGLKLACLGNDGILRLYDALEPSDLRSWTLTSEMKVLSIPPANHLQSDFCLSWCPSRFSPEKLAVSALEQAIIYQRGKDGKLHVAAKLPGHKSLIRSISWAPSIGRWYQLIATGCKDGRIRIFKITEKLSPLASEESLTNSNMFDNSADVDMDAQGRSDSNTEEKAELQSNLQVELLSEHDDHNGEVWSVSWNLTGTILSSAGDDGKVRLWKATYSNEFKCMSVITAQQ | binds |

— PMC9305297
